PubChem BioAssay AID1259308 – NCATS – 2017
The whole screen tested about 59,000 reagents; this is a part drawn at random. About 1,510 of all reagents (2.6%) were called active. 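Calls use total luciferase alone and ignore viability, so some active siRNAs may act by altering cell number.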 The numbers tell different reagents against one gene apart. Further read-outs or replicates are left out here.

Screen: 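Knock-downs that increase output of a recombinant reporter protein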 (primary screen)
Cells: human HEK293 embryonic kidney cells stably expressing firefly luciferase (HEK-CMV-Luc2-Hygro)
Reagents: single siRNA against human genes, 0.8 pmol siRNA per well
Duration: 72 h
Detection: 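Luciferase light (ONE-Glo) measured on one replicate plate set and viability (CellTiter-Glo) on the other, scaled to a negative control siRNA, with robust z-scores and luciferase per cell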
Direction: total luciferase, z-score: higher = more reporter protein produced
Rule for the call: 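Active when the median/MAD z-score for overall luciferase is greater than 3; a gene was taken forward for validation with new siRNAs if at least two of its three siRNAs passed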
Meaning of the calls: active = raised luciferase; inactive = no rise

| gene | reagent no. | total luciferase, z-score | Call |
| --- | --- | --- | --- |
| CTSS | 1 | 0.299 | inactive |
| CTSS | 2 | 0.759 | inactive |
| CTSS | 3 | -0.0691 | inactive |
| NICN1 | 1 | -0.361 | inactive |
| NICN1 | 2 | -1.35 | inactive |
| NICN1 | 3 | -1.17 | inactive |
| RPS15AP17 | 1 | -2.05 | inactive |
| RPS15AP17 | 2 | -1.04 | inactive |
| RPS15AP17 | 3 | -1.74 | inactive |
| ZNF839P4 | 1 | 0.635 | inactive |
| ZNF839P4 | 2 | 0.455 | inactive |
| ZNF839P4 | 3 | 0.459 | inactive |
| ZNF839P4 | 4 | -0.954 | inactive |
| ZNF839P4 | 5 | 0.25 | inactive |
| ZNF839P4 | 6 | 0.498 | inactive |
| ZNF839P4 | 7 | 2.92 | inactive |
| ZNF839P4 | 8 | 2.62 | inactive |
| ZNF839P4 | 9 | 2.04 | inactive |
| MAN1B1 | 1 | 0.0428 | inactive |
| MAN1B1 | 2 | -0.211 | inactive |
| MAN1B1 | 3 | 1.83 | inactive |
| RGP1 | 1 | 0.621 | inactive |
| RGP1 | 2 | -0.73 | inactive |
| RGP1 | 3 | 1.23 | inactive |

Part of the list above, reformatted:
ZNF839P4 #3 → total luciferase, z-score = 0.459; Call = inactive
ZNF839P4 #4 → total luciferase, z-score = -0.954; Call = inactive
